Values from PubChem BioAssay AID652259 (Drosophila RNAi Screening Center, 2013)

- Aim: 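Knock-downs that push a Wingless-driven reporter up or down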 (primary screen)
- System: Drosophila clone 8 imaginal disc epithelial cells
- Reagents: long dsRNA against Drosophila genes
- Treatment: pathway stimulated by co-transfected Wingless expression plasmid
- Measured: 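Firefly luciferase from a tcf-site Wingless reporter, measured alongside co-transfected Renilla luciferase that tracks transfection; pathway stimulated by a Wingless plasmid; the firefly-to-Renilla ratio is not deposited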
- Scale: firefly reporter light: higher = more Wg reporter light, before normalisation; Renilla control light: higher = more transfected or surviving cells
- Hit rule: 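Strong candidates differ from their plate mean by at least two out of four per-plate statistical tests; weak candidates meet just one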
- Meaning of the calls: active = candidate regulator (raises or lowers reporter); inactive = not a candidate
In all, the deposit lists about 22,000 reagents; this is a random part of those that have a named target and a result. In the full data, 233 (1.1%) are marked active. 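Light values are raw, unnormalised plate reads; the ratio scores behind the reporter calls were not deposited.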 Unmarked entries are inactive. Names joined by + are all predicted targets of the reagent. Not given: the amount of reagent, the time to read-out, the dose of the treatment.

target gene,DRSC id,"reporter change call, replicate 1","firefly reporter light, replicate 1","firefly reporter light, replicate 2","Renilla control light, replicate 1","Renilla control light, replicate 2"
CG44433,DRSC06517,,8682,,3462,
CG44433,DRSC06518,,4976,,2352,
Ir68a (Ionotropic receptor 68a),DRSC10599,,7848,,2954,
CG18735,DRSC04312,,3028,7334,864,2599
CG30049,DRSC21345,,8.21e5,7.31e5,8.50e5,4.73e5
kek6 (kekkon 6),DRSC15299,,22631,,9292,
Ucp4B + asRNA:CR43465,DRSC02665,,3296,4613,1088,1889
zetaCOP (Coat Protein (coatomer) zeta),DRSC11412,,5538,,2120,
CG8613,DRSC07222,,12404,,3547,
mRpS7 (mitochondrial ribosomal protein S7),DRSC02814,,12288,,1584,
vvl (ventral veins lacking),DRSC11409,,1770,6282,1168,2381
CG31549,DRSC21688,,7.00e5,5.89e5,3.07e5,2.41e5
htt (huntingtin),DRSC16970,,6756,,2199,
CG16959,DRSC10230,,2811,,1250,
Ype (Yippee),DRSC20301,,2855,7612,1104,2765
Gadd45 (Growth arrest and DNA damage-inducible 45),DRSC06033,,2685,9849,480,2332
barc (barricade),DRSC11792,,7520,,1457,
CG12071,DRSC14471,Wg reporter activity raised (active),6821,,864,
CG6938,DRSC10752,,4787,,2428,
unc80 (uncoordinated 80),DRSC15329,,6661,,2432,
Akt (Akt kinase),DRSC14108,,1748,4064,437,1261
Grx5 (Glutaredoxin 5),DRSC19593,,20589,,12434,
dpr4 (defective proboscis extension response 4),DRSC14531,,19225,,4608,
dpr4 (defective proboscis extension response 4),DRSC14929,,23570,,4866,
CG5556,DRSC00687,,4517,10579,1808,4374
CG15356,DRSC00386,,2648,6178,1008,1925
Obp56d (Odorant-binding protein 56d),DRSC06064,,5936,,2288,
CG7970,DRSC08605,,13865,,3634,
Droj2 (DnaJ-like-2),DRSC16450,,5879,,1968,
His4r (Histone H4 replacement),DRSC16703,,11319,,423,
CG14990,DRSC08449,,7017,,2224,
CG10589,DRSC11629,,18481,,6295,
CG33792,DRSC05355,,21618,,19657,
"betaNACtes4 (Nascent-associated complex beta-subunit-like, testis 4)",DRSC19801,,17947,,8971,
CG5639,DRSC15851,,5360,,2736,
MED7 (Mediator complex subunit 7),DRSC16059,,11380,,2325,
kz (kurz),DRSC18786,,19419,,17280,
drn + CG43675,DRSC15147,,8344,,3024,
sPLA2 (secretory Phospholipase A2),DRSC06041,,2853,7936,999,1532
CG11334,DRSC14066,,3034,,1232,
CG11334,DRSC14302,,22711,,13255,
Mau2,DRSC15550,,3043,,1478,
Cog2 (Component of oligomeric golgi complex 2),DRSC16987,,21227,,3820,
CG43693,DRSC09086,,3890,,2087,
CG43693,DRSC10625,,6519,,2348,
RpL24-like (Ribosomal protein L24-like),DRSC16111,,12680,,2924,
Rab18,DRSC18702,,1222,3376,690,1504
Or59a (Odorant receptor 59a),DRSC04631,,2193,6630,661,3211
Snx3 (Sorting nexin 3),DRSC16027,,16913,,4986,
